Test results taken from publication doi:10.1101/2025.02.11.636929.
These are yes or no findings as the source states them, for the method shown. Binding seen in cells or lysates may run through a third protein. Some binding calls cover weakened binding; strength is not graded here. Tags and fused reporters may be left off the sequences shown. Blank lines part the entries; values can stand above or below the binder they belong to.

Assays:
[1] = biological target: GFP-tagged TSAd N-term (1-205) R120K (human) (UniProt Q9NP31); assay: co-IP
[2] = biological target: GFP-tagged full-length human TSAd R120K (human) (UniProt Q9NP31); assay: co-IP

binding [1]: no binding | binding [2]: no binding
B1: DOK2 (endogenous, Jurkat TAg) (protein, UniProt O60496 1-412)
chain: MGDGAVKQGFLYLQQQQTFGKKWRRFGASLYGGSDCALARLELQEGPEKPRRCEAARKVIRLSDCLRVAEAGGEASSPRDTSAFFLETKERLYLLAAPAAERGDWVQAICLLAFPGQRKELSGPEGKQSRPCMEENELYSSAVTVGPHKEFAVTMRPTEASERCHLRGSYTLRAGESALELWGGPEPGTQLYDWPYRFLRRFGRDKVTFSFEAGRRCVSGEGNFEFETRQGNEIFLALEEAISAQKNAAPATPQPQPATIPASLPRPDSPYSRPHDSLPPPSPTTPVPAPRPRGQEGEYAVPFDAVARSLGKNFRGILAVPPQLLADPLYDSIEETLPPRPDHIYDEPEGVAALSLYDSPQEPRGEAWRRQATADRDPAGLQHVQPAGQDFSASGWQPGTEYDNVVLKKGPK

B2: VAV1 (endogenous, Jurkat TAg) (protein, UniProt P15498 1-845)
chain: MELWRQCTHWLIQCRVLPPSHRVTWDGAQVCELAQALRDGVLLCQLLNNLLPHAINLREVNLRPQMSQFLCLKNIRTFLSTCCEKFGLKRSELFEAFDLFDVQDFGKVIYTLSALSWTPIAQNRGIMPFPTEEESVGDEDIYSGLSDQIDDTVEEDEDLYDCVENEEAEGDEIYEDLMRSEPVSMPPKMTEYDKRCCCLREIQQTEEKYTDTLGSIQQHFLKPLQRFLKPQDIEIIFINIEDLLRVHTHFLKEMKEALGTPGAANLYQVFIKYKERFLVYGRYCSQVESASKHLDRVAAAREDVQMKLEECSQRANNGRFTLRDLLMVPMQRVLKYHLLLQELVKHTQEAMEKENLRLALDAMRDLAQCVNEVKRDNETLRQITNFQLSIENLDQSLAHYGRPKIDGELKITSVERRSKMDRYAFLLDKALLICKRRGDSYDLKDFVNLHSFQVRDDSSGDRDNKKWSHMFLLIEDQGAQGYELFFKTRELKKKWMEQFEMAISNIYPENATANGHDFQMFSFEETTSCKACQMLLRGTFYQGYRCHRCRASAHKECLGRVPPCGRHGQDFPGTMKKDKLHRRAQDKKRNELGLPKMEVFQEYYGLPPPPGAIGPFLRLNPGDIVELTKAEAEQNWWEGRNTSTNEIGWFPCNRVKPYVHGPPQDLSVHLWYAGPMERAGAESILANRSDGTFLVRQRVKDAAEFAISIKYNVEVKHIKIMTAEGLYRITEKKAFRGLTELVEFYQQNSLKDCFKSLDTTLQFPFKEPEKRTISRPAVGSTKYFGTAKARYDFCARDRSELSLKEGDIIKILNKKGQQGWWRGEIYGRVGWFPANYVEEDYSEYC
binding [1]: binds | binding [2]: binds
